Some results were stated once for a whole list of compounds, not compound by compound.
Tested on: anti-PLA2R mouse 20 Ab
Test: ProteOn SPR, candidate peptide mouse 20 antibody binding kinetics
Conditions: peptide immobilised on GLC chip, mouse 20 Ab 5-25 nM

With “THSD7A peptide: THSD7A peptide (SEQ ID NO: 91); Peptide 2 core sequence slightly modified (THSDAAAAAAA)” as the substance, how does the Kd read?
Its Kd is about 100 pM.
